These are yes or no findings as the source states them, for the method shown.
Target: S. Typhimurium FliF RBM1 (FliF_(50–124)) (Salmonella enterica serovar Typhimurium) (UniProt P15928)
Test: SEC; purified protein on Superdex 200 10/300 or Superose 6 10/300; 50 mM Hepes pH 8.0 or 9.0, 500 mM NaCl; oligomeric state from the elution volume; both purified

The chains behind the UniProt entries cited, without tags or fusion partners. Residues count along the entry.
UniProt P15928, residues 50-124: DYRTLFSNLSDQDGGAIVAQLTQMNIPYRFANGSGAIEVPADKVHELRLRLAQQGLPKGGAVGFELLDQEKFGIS

In the case of “S. Typhimurium FliF RBM1 (FliF_(50–124)) (from UniProt P15928 50-124) (domain or fragment)”, the binding is reported as “no binding”.

From article PMC8786727, “Oligomerization of the FliF Domains Suggests a Coordinated Assembly of the Bacterial Flagellum MS Ring” (Frontiers in Microbiology, 2021)
